Reference: PMC12130529
These are yes or no findings as the source states them, for the method shown. In cells and extracts the contact can be indirect. Some entries that bind do so weakly or less than the wild type.

Protein sequences, listed by entry. Tags and fused reporters are not part of them. Lines headed by an entry give the natural chain unless they say otherwise; changes in a name come on top.
UniProt O00560: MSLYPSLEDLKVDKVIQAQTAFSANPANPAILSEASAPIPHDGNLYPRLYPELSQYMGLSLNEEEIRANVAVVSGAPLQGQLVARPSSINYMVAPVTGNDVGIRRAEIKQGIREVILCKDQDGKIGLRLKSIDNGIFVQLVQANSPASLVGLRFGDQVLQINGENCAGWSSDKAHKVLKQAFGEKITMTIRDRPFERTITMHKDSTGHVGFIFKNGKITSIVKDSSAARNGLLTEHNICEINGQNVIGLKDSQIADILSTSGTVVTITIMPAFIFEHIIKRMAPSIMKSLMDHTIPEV
UniProt Q8NEZ5: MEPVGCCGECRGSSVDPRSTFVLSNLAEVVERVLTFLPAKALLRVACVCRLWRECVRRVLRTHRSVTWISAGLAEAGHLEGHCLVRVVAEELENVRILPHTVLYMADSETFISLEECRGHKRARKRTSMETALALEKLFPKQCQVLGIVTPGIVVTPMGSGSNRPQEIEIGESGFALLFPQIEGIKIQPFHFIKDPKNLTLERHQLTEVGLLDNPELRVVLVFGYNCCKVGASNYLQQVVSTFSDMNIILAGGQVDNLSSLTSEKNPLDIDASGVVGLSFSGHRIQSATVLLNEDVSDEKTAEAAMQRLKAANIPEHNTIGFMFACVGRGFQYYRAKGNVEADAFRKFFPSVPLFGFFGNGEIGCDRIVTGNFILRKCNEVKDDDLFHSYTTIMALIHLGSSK

Assays:
[1] = biological target: Myc-SDCBP (not stated (human or mouse cDNA constructs purchased)) (UniProt O00560); experiment: co-IP; HEK293 cells transfected with the indicated plasmids; lysis in ice-cold RIPA buffer, antibody overnight at 4 °C, protein A/G PLUS-agarose or Dynabeads protein G, four washes with RIPA, Western blot (Fig. EV4J, EV5A,B, 4C)
[2] = biological target: His-SKP1 (not stated (human or mouse cDNA constructs purchased)) (UniProt P63208); experiment: pull-down; His pull-down of His-SKP1 with Dynabeads His-Tag Isolation and Pulldown from lysates of transfected HEK293 cells, with control vector or Myc-SDCBP; Western blot (Fig. EV5E, 4D)

| Substance | binding [1] | binding [2] |
| --- | --- | --- |
| HA-FBXO22_Δ1 (from UniProt Q8NEZ5 62-403) (domain or fragment) | no binding |  |
| HA-FBXO22_Δ2 (from UniProt Q8NEZ5 1-285) (domain or fragment) | no binding |  |
| Myc-SDCBP (from UniProt O00560 1-298) |  | binds |
